Data published in patent publication US20260259229A1, “FATIGUE SYNDROME SIGNATURES AND METHODS OF TREATMENT” (The Board of Trustees of the Leland Stanford Junior …, priority 2023, published 2026).
At least one structure is not confirmed: it was looked up by name or label, or the drawing left a doubt.

Tested on: CD4 T cells
Experiment: Screening for reversal of oxidative damage: PBMCs treated with ROS inducer, then candidate drug; lipid peroxidation by flow cytometry (FIG. 9B, 9F)
Assay type: cell-based, human
Settings: drug after ROS inducer, versus positive control cells treated only with ROS inducer (FIG. 9F)
Protocol: FIGS. 9A-9F. Screening assays. (A) To identify drugs that can protect immune cell populations from oxidative stress, PBMCs are treated with candidate drugs (e.g., liproxstatin-1, metformin) for an hour, before treatment with ROS inducer (e.g., cumene […], tert-butyl hydroperoxide). By subsequently labeling cells with metabolic dyes to track oxidative stress parameters, comparisons with immune cells only treated with ROS inducer enable quantification of drugs capacity to protect against oxidative stress and damage in immune cell populations. (B) To identify drugs that can reverse oxidative stress and damage in immune cell populations, PBMCs are treated first with a ROS inducer for 30 minutes to an hour, before subsequent treatment with candidate drugs. By labeling with metabolic dyes and comparing the drug treated immune cell populations to those treated only with ROS inducer, we can quantify the capacity for drugs to reverse oxidative stress and damage in PBMCs. […] While flowchart is specific to T cells (e.g., anti-CD3/anti-CD28 stimulation), the core methodology is applicable to other immune cell populations, where changes in immune cells capacity to proliferate can be assessed upon treatment with candidate drugs. […]

In the case of `O=C(O)CC(=O)C(=O)O` [oxaloacetate], the “capacity for reversing oxidative damage (lipid peroxidation changes)” value is reported as “reversing oxidative damage”.
